Data: PubChem BioAssay AID248 (DTP/NCI, 2004)
The list is a part of this screen's results and no random one: it gathers some chemical classes. Not every dose and run of a compound is shown. T/C: endpoint of the treated group in % of that of the vehicle group. Some doses have a count of surviving animals in place of a T/C: the source files T/C as zero there, which appears to mark a toxic dose or a test without result, not a measured value. Some doses without a T/C left all or most animals alive at the check, yet need not have been tolerated: the source hardly ever lists a survival T/C far under the control, and the zero likely stands for such cases as well. Counts of survivors are from the toxicity check (mostly the fifth day) where no day follows; animals may have died later. Schedule codes are those of the source, taken here to give the interval after Q, in days (D) or hours (H), and the number of doses after X. Some schedule codes hold Z or #, which are not explained here. For survival time, the PubChem record calls one and a half times the control and up active, and a quarter to a half above the control has no call in these data; cut-offs in other NCI protocols can differ. Some entries were tested several times; the values are given in rising order. Some T/C values are followed by the survivors on the day toxicity was checked, most often the fifth; where neither a count nor a note follows, no animal had died by that day. Some T/C values are marked as having no survivor count here; that says nothing about deaths at the dose.

Tested on: L1210 leukemia ip in BDF1 mice, survival T/C
Experiment: NCI In Vivo Anticancer Drug Screen. Data for tumor model L1210 Leukemia (intraperitoneal) in B6D2F1 (BDF1) mice
Details: higher T/C = longer survival
[1] = T/C endpoint: mean survival time, dose: 10.0 mg/kg/injection, schedule: Q01DX001 (ip), vehicle: saline
[2] = T/C endpoint: mean survival time, dose: 40.0 mg/kg/injection, schedule: Q01DX001 (ip), vehicle: saline
[3] = T/C endpoint: mean survival time, dose: 75.0 mg/kg/injection, schedule: Q01DX001 (ip), vehicle: saline
[4] = T/C endpoint: mean survival time, dose: 150.0 mg/kg/injection, schedule: Q01DX001 (ip), vehicle: saline
[5] = T/C endpoint: mean survival time, dose: 300.0 mg/kg/injection, schedule: Q01DX001 (ip), vehicle: saline
[6] = T/C endpoint: mean survival time, dose: 100.0 mg/kg/injection, schedule: Q01DX001 (ip), vehicle: saline
[7] = T/C endpoint: mean survival time, dose: 200.0 mg/kg/injection, schedule: Q01DX001 (ip), vehicle: saline

COC(=O)C(N)Cc1ccc(N(CCCl)CCCl)cc1 (centres undefined)
T/C (T/C endpoint: mean survival time, dose: 0.88 mg/kg/injection, schedule: Q01DX009 (ip), vehicle: saline): 133 % of control | T/C (T/C endpoint: mean survival time, dose: 0.88 mg/kg/injection, schedule: Q03HX024 (ip), vehicle: saline): 225 % of control | T/C (T/C endpoint: mean survival time, dose: 1.25 mg/kg/injection, schedule: Q01DX001 (ip), vehicle: saline): 107 % of control | T/C (T/C endpoint: mean survival time, dose: 1.25 mg/kg/injection, schedule: Q01DX009 (ip), vehicle: saline): 126 % of control | T/C (T/C endpoint: mean survival time, dose: 1.3 mg/kg/injection, schedule: Q01DX009 (ip), vehicle: saline): 143 % of control | T/C (T/C endpoint: mean survival time, dose: 1.3 mg/kg/injection, schedule: Q03HX024 (ip), vehicle: saline): 255 % of control | T/C (T/C endpoint: mean survival time, dose: 2.0 mg/kg/injection, schedule: Q01DX009 (ip), vehicle: saline): 154 % of control | T/C (T/C endpoint: mean survival time, dose: 2.0 mg/kg/injection, schedule: Q03HX024 (ip), vehicle: saline): 321 % of control | T/C (T/C endpoint: mean survival time, dose: 2.5 mg/kg/injection, schedule: Q01DX001 (ip), vehicle: saline): 138 % of control | T/C (T/C endpoint: mean survival time, dose: 2.5 mg/kg/injection, schedule: Q01DX009 (ip), vehicle: saline): 142 % of control | T/C (T/C endpoint: mean survival time, dose: 3.0 mg/kg/injection, schedule: Q01DX009 (ip), vehicle: saline): 241 % of control [5 of 6 alive] | T/C (T/C endpoint: mean survival time, dose: 3.0 mg/kg/injection, schedule: Q03HX024 (ip), vehicle: saline): 114 % of control | T/C (T/C endpoint: mean survival time, dose: 4.5 mg/kg/injection, schedule: Q01DX009 (ip), vehicle: saline): 193 % of control | survivor count (T/C endpoint: mean survival time, dose: 4.5 mg/kg/injection, schedule: Q03HX024 (ip), vehicle: saline): 6 of 6 | T/C (T/C endpoint: mean survival time, dose: 5.0 mg/kg/injection, schedule: Q01DX001 (ip), vehicle: saline): 136 % of control | T/C (T/C endpoint: mean survival time, dose: 5.0 mg/kg/injection, schedule: Q01DX009 (ip), vehicle: saline): 214 % of control | T/C (T/C endpoint: mean survival time, dose: 6.6 mg/kg/injection, schedule: Q04DX003 (ip), vehicle: saline): 181 % of control | T/C [1]: 141 and 177 % of control | T/C (T/C endpoint: mean survival time, dose: 10.0 mg/kg/injection, schedule: Q01DX009 (ip), vehicle: saline): 162 % of control | T/C (T/C endpoint: mean survival time, dose: 10.0 mg/kg/injection, schedule: Q04DX003 (ip), vehicle: saline): 241 % of control | T/C (T/C endpoint: mean survival time, dose: 15.0 mg/kg/injection, schedule: Q04DX003 (ip), vehicle: saline): 322 % of control | T/C (T/C endpoint: mean survival time, dose: 20.0 mg/kg/injection, schedule: Q01DX001 (ip), vehicle: saline): 197 % of control [5 of 6 alive] | T/C (T/C endpoint: mean survival time, dose: 22.5 mg/kg/injection, schedule: Q04DX003 (ip), vehicle: saline): 121 % of control | survivor count (T/C endpoint: mean survival time, dose: 33.75 mg/kg/injection, schedule: Q04DX003 (ip), vehicle: saline): 4 of 6 | survivor count [2]: 5 of 6 | survivor count [3]: 2 of 6 | survivor count [4]: 0 of 6 | survivor count [5]: 0 of 6

O=C(O)C1C[N+]12C=CC=CC2=O (centres undefined)
T/C (T/C endpoint: mean survival time, dose: 100.0 mg/kg/injection, schedule: Q04DX003 (ip), vehicle: saline): 100 % of control [5 of 6 alive] | T/C (T/C endpoint: mean survival time, dose: 200.0 mg/kg/injection, schedule: Q04DX003 (ip), vehicle: saline): 98 % of control | T/C (T/C endpoint: mean survival time, dose: 400.0 mg/kg/injection, schedule: Q04DX003 (ip), vehicle: saline): 98 % of control [4 of 6 alive]

[N-]=[N+]=NC(=N)N
T/C [6]: 102 % of control [survivor count not shown] | T/C [7]: 111 % of control [survivor count not shown]

CCCCOP(C)(O)=S (centres undefined)
T/C (T/C endpoint: mean survival time, dose: 12.5 mg/kg/injection, schedule: Q04DX002 (ip), vehicle: saline with Tween-80): 102 % of control [survivor count not shown] | T/C (T/C endpoint: mean survival time, dose: 25.0 mg/kg/injection, schedule: Q04DX002 (ip), vehicle: saline with Tween-80): 105 % of control [survivor count not shown]

O=C(Cc1ccccc1)OCCNCCCl
T/C (T/C endpoint: median survival time, dose: 100.0 mg/kg/injection, schedule: Q01DX009 (ip), vehicle: saline): 106 % of control | T/C (T/C endpoint: median survival time, dose: 200.0 mg/kg/injection, schedule: Q01DX009 (ip), vehicle: saline): 105 % of control | T/C (T/C endpoint: median survival time, dose: 400.0 mg/kg/injection, schedule: Q01DX009 (ip), vehicle: saline): 96 % of control

Cc1ccc(C(C)(C)O)c(CN(C)C)c1C
T/C (T/C endpoint: mean survival time, dose: 50.0 mg/kg/injection, schedule: Q01DX001 (ip), vehicle: saline): 97 % of control | T/C [6]: 101 % of control | T/C [7]: 93 % of control | T/C (T/C endpoint: mean survival time, dose: 400.0 mg/kg/injection, schedule: Q01DX001 (ip), vehicle: saline): 101 % of control [4 of 6 alive]

NC1=NP(=O)(Oc2ccccc2)N=C(Nc2ccccc2)N1 (centres undefined)
T/C (T/C endpoint: mean survival time, dose: 100.0 mg/kg/injection, schedule: Q04DX003 (ip), vehicle: Klucel (hydroxypropylcellulose) (HPC)): 95 % of control | T/C (T/C endpoint: mean survival time, dose: 200.0 mg/kg/injection, schedule: Q04DX003 (ip), vehicle: Klucel (hydroxypropylcellulose) (HPC)): 100 % of control | T/C (T/C endpoint: mean survival time, dose: 400.0 mg/kg/injection, schedule: Q04DX003 (ip), vehicle: Klucel (hydroxypropylcellulose) (HPC)): 95 % of control

O=[N+]([O-])N=C1NCCN1
T/C (T/C endpoint: mean survival time, dose: 100.0 mg/kg/injection, schedule: Q04DX002 (ip), vehicle: Klucel (hydroxypropylcellulose) (HPC)): 100 % of control | T/C (T/C endpoint: mean survival time, dose: 200.0 mg/kg/injection, schedule: Q04DX002 (ip), vehicle: Klucel (hydroxypropylcellulose) (HPC)): 103 % of control | T/C (T/C endpoint: mean survival time, dose: 400.0 mg/kg/injection, schedule: Q04DX002 (ip), vehicle: Klucel (hydroxypropylcellulose) (HPC)): 93 % of control

O=C(O)Cc1ccc(N(CCCl)CCCl)cc1
T/C (T/C endpoint: mean survival time, dose: 0.5 mg/kg/injection, schedule: Q01DX015 (ip), vehicle: carboxymethylcellulose (CMC)): 100 % of control | T/C (T/C endpoint: mean survival time, dose: 1.0 mg/kg/injection, schedule: Q01DX015 (ip), vehicle: carboxymethylcellulose (CMC)): 100 [5 of 6 alive] and 107 % of control | T/C (T/C endpoint: mean survival time, dose: 2.0 mg/kg/injection, schedule: Q01DX015 (ip), vehicle: carboxymethylcellulose (CMC)): 107 and 128 % of control | T/C (T/C endpoint: mean survival time, dose: 2.0 mg/kg/injection, schedule: Q01DX Z (ip), vehicle: carboxymethylcellulose (CMC)): 111 % of control | T/C (T/C endpoint: mean survival time, dose: 4.0 mg/kg/injection, schedule: Q01DX015 (ip), vehicle: carboxymethylcellulose (CMC)): 114 and 123 % of control | T/C (T/C endpoint: mean survival time, dose: 4.0 mg/kg/injection, schedule: Q01DX Z (ip), vehicle: carboxymethylcellulose (CMC)): 124 % of control | T/C (T/C endpoint: mean survival time, dose: 6.0 mg/kg/injection, schedule: Q01DX015 (ip), vehicle: carboxymethylcellulose (CMC)): 125 % of control | T/C (T/C endpoint: mean survival time, dose: 6.0 mg/kg/injection, schedule: Q01DX Z (ip), vehicle: carboxymethylcellulose (CMC)): 128 % of control | T/C (T/C endpoint: mean survival time, dose: 8.0 mg/kg/injection, schedule: Q01DX015 (ip), vehicle: carboxymethylcellulose (CMC)): 109 and 150 % of control | T/C (T/C endpoint: mean survival time, dose: 8.0 mg/kg/injection, schedule: Q01DX Z (ip), vehicle: carboxymethylcellulose (CMC)): 114 and 124 % of control [5 of 6 alive] | T/C [1]: 100 % of control | T/C (T/C endpoint: mean survival time, dose: 10.0 mg/kg/injection, schedule: Q01DX015 (ip), vehicle: carboxymethylcellulose (CMC)): 121 % of control | T/C (T/C endpoint: mean survival time, dose: 10.0 mg/kg/injection, schedule: Q01DX Z (ip), vehicle: carboxymethylcellulose (CMC)): 122 % of control | T/C (T/C endpoint: mean survival time, dose: 12.0 mg/kg/injection, schedule: Q01DX015 (ip), vehicle: carboxymethylcellulose (CMC)): 137 % of control | T/C (T/C endpoint: mean survival time, dose: 12.0 mg/kg/injection, schedule: Q01DX Z (ip), vehicle: carboxymethylcellulose (CMC)): 107 % of control | T/C (T/C endpoint: mean survival time, dose: 14.0 mg/kg/injection, schedule: Q01DX015 (ip), vehicle: carboxymethylcellulose (CMC)): 146 % of control | T/C (T/C endpoint: mean survival time, dose: 16.0 mg/kg/injection, schedule: Q01DX015 (ip), vehicle: carboxymethylcellulose (CMC)): 90 and 141 % of control [5 of 6 alive] | survivor count (T/C endpoint: mean survival time, dose: 16.0 mg/kg/injection, schedule: Q01DX Z (ip), vehicle: carboxymethylcellulose (CMC)): 0 of 6 | T/C (T/C endpoint: mean survival time, dose: 25.0 mg/kg/injection, schedule: Q01DX001 (ip), vehicle: saline): 100 % of control | survivor count (T/C endpoint: mean survival time, dose: 32.0 mg/kg/injection, schedule: Q01DX015 (ip), vehicle: carboxymethylcellulose (CMC)): 0 of 6 | T/C [2]: 109 % of control | T/C (T/C endpoint: mean survival time, dose: 60.0 mg/kg/injection, schedule: Q01DX001 (ip), vehicle: saline): 104 % of control | survivor count (T/C endpoint: mean survival time, dose: 64.0 mg/kg/injection, schedule: Q01DX015 (ip), vehicle: carboxymethylcellulose (CMC)): 0 of 6 | survivor count [3]: 2 of 6 | survivor count [4]: 1 of 6 | survivor count [5]: 0 of 6
